PubChem BioAssay AID1224830, NIAID – 2016
In all, the deposit lists about 18,000 reagents; this is a part drawn at random. In the full data, about 2,900 (16%) are marked active. 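Calls are made per well; low scores hint the gene aids the LPS response, high scores that it dampens it.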 A number with no mark means an inactive call. Repeated entries: four replicate wells of each siRNA pool.

Assay: 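Regulators of TLR4 signalling towards TNF-alpha in macrophage-like cells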 (primary screen)
Cells: human THP-1 monocytic leukaemia cells, TNF dual-luciferase reporter clone, PMA-differentiated to macrophage-like cells
Knock-down reagent: siRNA pool against human genes, 50 nM
Timing: LPS for 4 h, given about 3 days after siRNA transfection
Conditions: bacterial LPS (TLR4 ligand), 10 ng/ml
Detection: 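TNF firefly reporter luminescence divided by renilla, normalised to the plate median, then turned into a robust z-score for each replicate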
Scale: TNF reporter robust z-score: higher = stronger TNF reporter response to LPS
Call rule: 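Each well counts as active if its z-score is over 2.8 or under -1.5; controls are left without a call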

| target gene | TNF reporter robust z-score |
| --- | --- |
| USP36 (ubiquitin specific peptidase 36) | -0.51 |
| USP36 (ubiquitin specific peptidase 36) | -0.06 |
| USP36 (ubiquitin specific peptidase 36) | -0.47 |
| USP36 (ubiquitin specific peptidase 36) | -0.3 |
| GPR101 (G protein-coupled receptor 101) | -1.01 |
| GPR101 (G protein-coupled receptor 101) | -0.55 |
| GPR101 (G protein-coupled receptor 101) | -0.7 |
| GPR101 (G protein-coupled receptor 101) | 0 |
| CHUK | -0.41 |
| CHUK | -1.08 |
| CHUK | -0.28 |
| CHUK | -0.49 |
| COX17 (cytochrome c oxidase copper chaperone COX17) | 0.04 |
| COX17 (cytochrome c oxidase copper chaperone COX17) | 0.2 |
| COX17 (cytochrome c oxidase copper chaperone COX17) | 0.54 |
| COX17 (cytochrome c oxidase copper chaperone COX17) | -0.11 |
| EIF2S1 (eukaryotic translation initiation factor 2 subunit alpha) | -1.39 |
| EIF2S1 (eukaryotic translation initiation factor 2 subunit alpha) | -1.55 (active) |
| EIF2S1 (eukaryotic translation initiation factor 2 subunit alpha) | -1.35 |
| EIF2S1 (eukaryotic translation initiation factor 2 subunit alpha) | -0.74 |
| TMEM192 (transmembrane protein 192) | -0.07 |
| TMEM192 (transmembrane protein 192) | -0.39 |
| TMEM192 (transmembrane protein 192) | -0.54 |
| TMEM192 (transmembrane protein 192) | 0.61 |
| ZXDC (ZXD family zinc finger C) | -0.74 |
| ZXDC (ZXD family zinc finger C) | -1.01 |
| ZXDC (ZXD family zinc finger C) | -1.3 |
| ZXDC (ZXD family zinc finger C) | -0.91 |
| AMT (aminomethyltransferase) | -0.41 |
| AMT (aminomethyltransferase) | 0.07 |
| AMT (aminomethyltransferase) | -1.28 |
| AMT (aminomethyltransferase) | -0.62 |
| XKR9 (XK related 9) | -0.02 |
| XKR9 (XK related 9) | -0.39 |
| XKR9 (XK related 9) | 0.85 |
| XKR9 (XK related 9) | 1.79 |
| SNRPG (small nuclear ribonucleoprotein polypeptide G) | 0.67 |
| SNRPG (small nuclear ribonucleoprotein polypeptide G) | 0.71 |
| SNRPG (small nuclear ribonucleoprotein polypeptide G) | 0.41 |
| SNRPG (small nuclear ribonucleoprotein polypeptide G) | 0.42 |
| DISC1 (DISC1 scaffold protein) | -0.65 |
| DISC1 (DISC1 scaffold protein) | -0.17 |
| DISC1 (DISC1 scaffold protein) | -1.05 |
| DISC1 (DISC1 scaffold protein) | -0.15 |
| TENT5A (terminal nucleotidyltransferase 5A) | 0.27 |
| TENT5A (terminal nucleotidyltransferase 5A) | -0.14 |
| TENT5A (terminal nucleotidyltransferase 5A) | 1.4 |
| TENT5A (terminal nucleotidyltransferase 5A) | 1.44 |
| SNRPF (small nuclear ribonucleoprotein polypeptide F) | 1.79 |
| SNRPF (small nuclear ribonucleoprotein polypeptide F) | -0.87 |
| SNRPF (small nuclear ribonucleoprotein polypeptide F) | -0.91 |
| SNRPF (small nuclear ribonucleoprotein polypeptide F) | -0.52 |
| TSPAN12 (tetraspanin 12) | -0.08 |
| TSPAN12 (tetraspanin 12) | -0.74 |
| TSPAN12 (tetraspanin 12) | -1.36 |
| TSPAN12 (tetraspanin 12) | -0.39 |
| SLC37A1 | -0.91 |
| SLC37A1 | 0.34 |
| SLC37A1 | -0.67 |
| SLC37A1 | 1.45 |
| HSPBP1 (HSPA (Hsp70) binding protein 1) | 0.44 |
| HSPBP1 (HSPA (Hsp70) binding protein 1) | 0.66 |
| HSPBP1 (HSPA (Hsp70) binding protein 1) | 0.58 |
| HSPBP1 (HSPA (Hsp70) binding protein 1) | 2.03 |
| AK8 (adenylate kinase 8) | 0.85 |
| AK8 (adenylate kinase 8) | 2.43 |
| AK8 (adenylate kinase 8) | 0.4 |
| AK8 (adenylate kinase 8) | -0.15 |
| MXD1 (MAX dimerization protein 1) | 0.23 |
| MXD1 (MAX dimerization protein 1) | -0.1 |
| MXD1 (MAX dimerization protein 1) | 1.15 |
| MXD1 (MAX dimerization protein 1) | 0.25 |
| PTX4 (pentraxin 4) | 0.66 |
| PTX4 (pentraxin 4) | 1.91 |
| PTX4 (pentraxin 4) | -1.14 |
| PTX4 (pentraxin 4) | -0.84 |
| OASL (2'-5'-oligoadenylate synthetase like) | -2 (active) |
| OASL (2'-5'-oligoadenylate synthetase like) | -1.76 (active) |
| OASL (2'-5'-oligoadenylate synthetase like) | -1.83 (active) |
| OASL (2'-5'-oligoadenylate synthetase like) | -1.71 (active) |
| TACSTD2 (tumor associated calcium signal transducer 2) | -1.01 |
| TACSTD2 (tumor associated calcium signal transducer 2) | -0.07 |
| TACSTD2 (tumor associated calcium signal transducer 2) | -1.29 |
| TACSTD2 (tumor associated calcium signal transducer 2) | -1.52 (active) |
| RBM7 (RNA binding motif protein 7) | -0.64 |
| RBM7 (RNA binding motif protein 7) | -0.13 |
| RBM7 (RNA binding motif protein 7) | -0.62 |
| RBM7 (RNA binding motif protein 7) | -0.5 |
| FAM53B (family with sequence similarity 53 member B) | 0.16 |
| FAM53B (family with sequence similarity 53 member B) | -0.52 |
| FAM53B (family with sequence similarity 53 member B) | 0.18 |
| FAM53B (family with sequence similarity 53 member B) | -0.27 |
| TUBB4B (tubulin beta 4B class IVb) | 0.67 |
| TUBB4B (tubulin beta 4B class IVb) | 1.68 |
| TUBB4B (tubulin beta 4B class IVb) | 2.05 |
| TUBB4B (tubulin beta 4B class IVb) | 0.72 |
| KIF23 (kinesin family member 23) | -0.41 |
| KIF23 (kinesin family member 23) | 1.34 |
| KIF23 (kinesin family member 23) | 0.24 |
| KIF23 (kinesin family member 23) | 0.71 |
| MEOX2 (mesenchyme homeobox 2) | -0.11 |
| MEOX2 (mesenchyme homeobox 2) | 0.49 |
| MEOX2 (mesenchyme homeobox 2) | 0.43 |
| MEOX2 (mesenchyme homeobox 2) | 0.76 |
| B3GNT9 | 1.91 |
| B3GNT9 | 0.77 |
| B3GNT9 | 2.12 |
| B3GNT9 | 1.06 |
| GADD45G (growth arrest and DNA damage inducible gamma) | 0.34 |
| GADD45G (growth arrest and DNA damage inducible gamma) | 0.07 |
| GADD45G (growth arrest and DNA damage inducible gamma) | 0.33 |
| GADD45G (growth arrest and DNA damage inducible gamma) | -0.49 |
